Data set [1] concerns the target p53 (nuclear extract of SN38-treated MCF10A/OD) (UniProt P04637). The data set is described as follows: EMSA. The following applies: SN38 10 ng/ml 24 h, dimer bands only, no tetramer; EMSA: 20 fmol biotin probe, 9 ug nuclear extract or 0.15 uM p53, 2 pmol poly(dI-dC), 2.5% glycerol, 0.05% NP40, 1.5 mM MgCl2, 1 mM EDTA (LightShift kit); 4% native gel; protein in an extract; label: 3' biotin on both strands.

The target of data set [2] is p53 (nuclear extract of SN38-treated MCF10A) (UniProt P04637). The data set is described as follows: EMSA. Particulars: EMSA: 20 fmol biotin probe, 9 ug nuclear extract or 0.15 uM p53, 2 pmol poly(dI-dC), 2.5% glycerol, 0.05% NP40, 1.5 mM MgCl2, 1 mM EDTA (LightShift kit), 4% native gel, protein in an extract, label: 3' biotin on both strands. On the technique in general: Mobility shift assays separate free from complexed probe on a gel.

The exact form of at least one protein or probe is not confirmed. Results from cells or extracts need not show a direct contact. For part of these data: A weaker result is weaker than the reference pair of the same experiment.

Turning to “AAACAAACAAAACAATTGGCCTTGGGAAACTGGACAATCTTG (double strand) [cyclin B promoter head-to-tail p53 element probe]”, the binding result is reported as “binds” in data set [1]; “binds” in data set [2] (SN38 10 ng/ml 24 h, bands of tetramer and dimer size, lost with 200-fold unlabeled probe); “binds more weakly” in data set [2] (untreated MCF10A extract (no SN38), low p53 level, significantly reduced bands).
